Results taken from publication PMC13043894.
Substitutions are numbered along the chain they refer to. Names and notes keep the numbering of the source. These are yes or no findings as the source states them, for the method shown. In cells and extracts the contact can be indirect. Some binding calls cover weakened binding; strength is not graded here. For some assays here: Where a sequence is shown, tags or fusion partners need not be part of it.

By UniProt entry, the sequences of proteins in these tests, tags left out.
UniProt P34077: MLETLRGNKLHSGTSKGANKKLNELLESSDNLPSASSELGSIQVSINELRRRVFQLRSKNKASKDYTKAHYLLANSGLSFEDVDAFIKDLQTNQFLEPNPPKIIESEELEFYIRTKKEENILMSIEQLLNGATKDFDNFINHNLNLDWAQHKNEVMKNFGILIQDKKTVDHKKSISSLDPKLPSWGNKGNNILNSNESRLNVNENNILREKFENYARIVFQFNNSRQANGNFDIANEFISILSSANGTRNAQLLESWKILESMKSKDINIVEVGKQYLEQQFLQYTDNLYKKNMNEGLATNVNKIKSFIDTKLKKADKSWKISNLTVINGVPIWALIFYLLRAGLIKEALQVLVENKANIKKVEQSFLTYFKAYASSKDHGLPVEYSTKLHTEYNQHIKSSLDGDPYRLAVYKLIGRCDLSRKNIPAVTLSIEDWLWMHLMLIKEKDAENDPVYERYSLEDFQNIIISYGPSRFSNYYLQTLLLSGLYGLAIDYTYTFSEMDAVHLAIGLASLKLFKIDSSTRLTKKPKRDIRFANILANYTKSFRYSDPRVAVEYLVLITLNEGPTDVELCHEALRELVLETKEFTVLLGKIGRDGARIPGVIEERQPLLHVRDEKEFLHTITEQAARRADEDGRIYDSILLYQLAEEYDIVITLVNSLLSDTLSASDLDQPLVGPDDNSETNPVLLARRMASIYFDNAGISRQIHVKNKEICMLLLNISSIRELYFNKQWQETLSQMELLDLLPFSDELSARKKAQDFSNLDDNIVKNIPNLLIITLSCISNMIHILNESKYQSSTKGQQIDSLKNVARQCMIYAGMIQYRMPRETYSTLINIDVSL

T1: Brr6 (construct of the immunoprecipitation of Fig. EV1F) (S. cerevisiae) (UniProt P53062)
T1 sequence: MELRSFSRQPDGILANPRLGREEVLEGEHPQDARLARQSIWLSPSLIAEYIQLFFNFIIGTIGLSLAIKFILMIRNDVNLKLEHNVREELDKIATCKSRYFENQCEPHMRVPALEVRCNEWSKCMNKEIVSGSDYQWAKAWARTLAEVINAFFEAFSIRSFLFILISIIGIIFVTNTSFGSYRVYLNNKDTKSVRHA

T2: brr6^L145E (S. cerevisiae) (UniProt P53062)
T2 sequence: T1 sequence with L145E

B1: Brl1 (construct of the immunoprecipitation of Fig. EV1F) (protein, UniProt P38770 1-471)
chain: MESFENLSIRDSFTSGMEHVDEELGGLSDLSISKQGPTLSPQLINRFMPHFPSSPSPLRNTLDFSAAKADEEEDDRMEIDEVDDTSFEEEYNNEPIETHTEATENAVVEEIEATPEERQKQEKNESQDQSVEEVENIVSPHRSTVIKALLSPTDLGVAAATKVEGVVPLPPSANQDDNESSNNNAEGEDIIRNEEVEDEIKSSLGNHKSSQYANAFDSEIIKRELRSRSKYQPIQVSFNTHNYFYSDKDGIKTYSLTKPNHNKIDEFYDQNEAFKLPKPWSPNSHPASRASYALMSYLQLFLNAITTVVIFSFILSFIIALQKDLKSTWEQRKHELQYESRICQEQYLTNRCNQTPGLPALGEQCAIWKQCMDRNNDIFFRARSTLSAKLFGDIINSFIDPLNWKTLFVIFCGVITWCFSSNFLLGFVRAKSYYGNGIKTYPLPSSPKSPTSEETHSSMTASGEDSHLLKQ
B2: brl1^F391E (protein, UniProt P38770 1-471)
chain: B1 chain with F391E
B3: Brl1 (untagged, overexpressed from pAdh1-BRL1 or pGal1-BRL1) (protein, UniProt P38770 1-471)
chain: B1 chain
B4: Brl1-HA (protein, UniProt P38770 1-471)
chain: B1 chain
B5: endogenous Brl1 (protein, UniProt P38770 1-471)
chain: B1 chain
B6: Brr6^1-53–Brl1^300-471-HA (protein, UniProt P53062 1-53; P38770 300-471)
chain: MELRSFSRQPDGILANPRLGREEVLEGEHPQDARLARQSIWLSPSLIAEYIQLLFLNAITTVVIFSFILSFIIALQKDLKSTWEQRKHELQYESRICQEQYLTNRCNQTPGLPALGEQCAIWKQCMDRNNDIFFRARSTLSAKLFGDIINSFIDPLNWKTLFVIFCGVITWCFSSNFLLGFVRAKSYYGNGIKTYPLPSSPKSPTSEETHSSMTASGEDSHLLKQ

Experiments:
[1] = target: T1, Brr6 (construct of the immunoprecipitation of Fig. EV1F) (S. cerevisiae); test: co-IP; yeast cells expressing BRL1 and BRR6 constructs lysed, precipitation with GFP-binder, immunoblot; which partner carried GFP is not told
[2] = target: T2, brr6^L145E (S. cerevisiae); test: as above
[3] = target: Nic96-GFP (S. cerevisiae) (UniProt P34077); test: co-IP; Nic96-GFP precipitated from yeast lysates on GFP-Trap (GFP nanobody) agarose beads, 2 h at 4 °C; lysis buffer 20 mM Tris-Cl pH 8.0, 150 mM NaCl, 5 mM MgCl2, 10% glycerol, 0.5% Triton X-100; immunoblot; cells with untagged NIC96 as control

| Binder | binding [1] | binding [2] | binding [3] |
| --- | --- | --- | --- |
| B1 | binds | binds | – |
| B2 | binds | binds | – |
| B3 | – | – | binds |
| B4 | – | – | binds |
| B5 | – | – | binds |
| B6 | – | – | no binding |
